Assay results: article PMC9508122
Results are given in words; binding and its absence hold for the method and conditions named. Binding seen in cells or lysates may run through a third protein. Binding calls can cover weak binding; strength is not graded here. Where a sequence is shown, tags or fusion partners need not be part of it.

molecular target: T1, TIPE1-Flag, full-length TIPE1 (FL) (UniProt Q8WVP5); experiment: co-IP; HEK-293T cells transfected with Flag-tagged TIPE1 (or its truncations) and HA-tagged PRMT1 (full length or truncations), harvested 24 h after transfection; lysates with anti-HA or anti-Flag antibody, protein G agarose; western blot
T1 sequence: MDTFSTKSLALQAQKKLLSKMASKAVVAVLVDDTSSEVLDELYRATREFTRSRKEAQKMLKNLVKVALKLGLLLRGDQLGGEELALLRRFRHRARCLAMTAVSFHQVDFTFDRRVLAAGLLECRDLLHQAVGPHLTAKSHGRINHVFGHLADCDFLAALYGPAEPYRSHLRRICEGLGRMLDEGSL

binding | Substance
binds | PRMT1 truncation Δ1 (HA tag) (domain or fragment)
binds | PRMT1 truncation Δ2 (HA tag) (domain or fragment)
binds | PRMT1 truncation Δ4 (HA tag) (domain or fragment)
